Compound in the assay: Cc1cc(ccc1-c1ccccc1)C(=O)N1CCCN(CC1)C(=O)CCl [compound 10]
Put plainly: probe-labelled cysteine peptide fold change vs DMSO (competition) (log2 fold change); higher = less target engagement (more negative = stronger competition). As to conditions: THP-1, incubation time: 4 h.

Sequences of proteins named here, by UniProt entry; tags and fusion partners are left off. A change or cut given only in a name is not applied to a line headed by its entry.
UniProt Q01780: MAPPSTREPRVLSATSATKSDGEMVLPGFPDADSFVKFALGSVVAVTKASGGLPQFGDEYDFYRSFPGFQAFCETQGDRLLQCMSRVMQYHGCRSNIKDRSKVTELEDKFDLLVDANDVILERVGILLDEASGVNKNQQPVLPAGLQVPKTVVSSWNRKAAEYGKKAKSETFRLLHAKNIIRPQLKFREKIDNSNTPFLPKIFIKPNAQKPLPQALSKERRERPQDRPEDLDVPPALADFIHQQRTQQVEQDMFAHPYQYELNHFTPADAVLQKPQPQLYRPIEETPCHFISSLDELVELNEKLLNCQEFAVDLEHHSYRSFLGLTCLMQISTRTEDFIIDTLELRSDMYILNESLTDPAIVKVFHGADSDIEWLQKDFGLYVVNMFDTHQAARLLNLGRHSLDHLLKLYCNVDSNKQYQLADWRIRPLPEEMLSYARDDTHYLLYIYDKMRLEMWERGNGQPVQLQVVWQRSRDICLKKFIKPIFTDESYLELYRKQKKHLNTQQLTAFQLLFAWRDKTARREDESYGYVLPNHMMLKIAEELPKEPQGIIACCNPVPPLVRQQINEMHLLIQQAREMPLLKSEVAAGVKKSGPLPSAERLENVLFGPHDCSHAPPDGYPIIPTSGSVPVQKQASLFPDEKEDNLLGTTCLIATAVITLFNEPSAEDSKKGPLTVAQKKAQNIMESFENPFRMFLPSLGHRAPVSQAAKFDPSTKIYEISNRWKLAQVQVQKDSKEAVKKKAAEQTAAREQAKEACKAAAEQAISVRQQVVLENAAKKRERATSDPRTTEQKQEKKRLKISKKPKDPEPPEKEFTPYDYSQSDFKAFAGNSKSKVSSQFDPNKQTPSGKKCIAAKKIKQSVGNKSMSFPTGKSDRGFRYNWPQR
UniProt Q96KP1: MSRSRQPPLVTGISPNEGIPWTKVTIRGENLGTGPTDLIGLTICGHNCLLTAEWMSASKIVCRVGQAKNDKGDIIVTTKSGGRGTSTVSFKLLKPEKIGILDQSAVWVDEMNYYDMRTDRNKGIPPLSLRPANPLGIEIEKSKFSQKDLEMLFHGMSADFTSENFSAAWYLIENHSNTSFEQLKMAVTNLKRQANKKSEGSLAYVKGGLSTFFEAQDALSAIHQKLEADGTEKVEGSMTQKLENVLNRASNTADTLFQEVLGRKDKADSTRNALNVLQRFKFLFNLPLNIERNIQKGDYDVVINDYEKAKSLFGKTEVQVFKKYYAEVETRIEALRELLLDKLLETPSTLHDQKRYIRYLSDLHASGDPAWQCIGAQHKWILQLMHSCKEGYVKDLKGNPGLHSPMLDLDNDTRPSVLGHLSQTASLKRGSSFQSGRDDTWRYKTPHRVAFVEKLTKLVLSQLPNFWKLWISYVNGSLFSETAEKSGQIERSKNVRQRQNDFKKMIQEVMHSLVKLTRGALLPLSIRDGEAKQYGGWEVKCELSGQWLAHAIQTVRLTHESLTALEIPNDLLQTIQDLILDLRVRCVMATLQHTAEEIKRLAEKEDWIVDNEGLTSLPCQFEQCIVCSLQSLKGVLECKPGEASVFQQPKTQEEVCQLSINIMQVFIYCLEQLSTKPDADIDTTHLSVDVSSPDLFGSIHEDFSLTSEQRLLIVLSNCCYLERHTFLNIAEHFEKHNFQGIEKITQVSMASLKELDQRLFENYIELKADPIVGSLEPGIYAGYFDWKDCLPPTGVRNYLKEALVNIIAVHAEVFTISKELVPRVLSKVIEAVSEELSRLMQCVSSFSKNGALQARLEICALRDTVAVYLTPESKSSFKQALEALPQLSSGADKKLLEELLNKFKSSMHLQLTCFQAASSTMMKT
UniProt Q96EK7: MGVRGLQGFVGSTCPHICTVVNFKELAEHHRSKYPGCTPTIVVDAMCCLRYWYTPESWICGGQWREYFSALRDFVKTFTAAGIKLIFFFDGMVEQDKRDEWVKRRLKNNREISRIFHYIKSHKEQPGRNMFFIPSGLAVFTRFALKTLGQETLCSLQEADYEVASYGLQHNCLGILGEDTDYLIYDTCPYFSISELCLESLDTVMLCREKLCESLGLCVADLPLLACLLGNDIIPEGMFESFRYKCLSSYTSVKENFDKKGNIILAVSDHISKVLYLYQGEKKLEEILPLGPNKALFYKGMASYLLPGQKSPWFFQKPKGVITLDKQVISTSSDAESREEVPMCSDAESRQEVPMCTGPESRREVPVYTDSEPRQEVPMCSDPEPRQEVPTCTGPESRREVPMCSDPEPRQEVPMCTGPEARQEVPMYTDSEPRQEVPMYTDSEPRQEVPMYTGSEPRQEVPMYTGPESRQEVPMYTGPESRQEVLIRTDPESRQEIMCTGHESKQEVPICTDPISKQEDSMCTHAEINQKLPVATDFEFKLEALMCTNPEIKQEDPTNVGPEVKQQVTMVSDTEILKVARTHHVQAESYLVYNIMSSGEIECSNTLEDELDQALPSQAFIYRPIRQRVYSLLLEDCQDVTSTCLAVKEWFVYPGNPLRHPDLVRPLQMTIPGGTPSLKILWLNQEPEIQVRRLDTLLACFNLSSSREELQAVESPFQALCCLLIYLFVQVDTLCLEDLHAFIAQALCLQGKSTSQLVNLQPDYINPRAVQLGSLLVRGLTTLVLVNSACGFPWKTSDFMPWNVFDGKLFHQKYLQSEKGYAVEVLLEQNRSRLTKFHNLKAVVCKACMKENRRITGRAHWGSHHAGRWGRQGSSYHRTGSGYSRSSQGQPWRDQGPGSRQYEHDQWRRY
UniProt Q06265, whole entry, looked up: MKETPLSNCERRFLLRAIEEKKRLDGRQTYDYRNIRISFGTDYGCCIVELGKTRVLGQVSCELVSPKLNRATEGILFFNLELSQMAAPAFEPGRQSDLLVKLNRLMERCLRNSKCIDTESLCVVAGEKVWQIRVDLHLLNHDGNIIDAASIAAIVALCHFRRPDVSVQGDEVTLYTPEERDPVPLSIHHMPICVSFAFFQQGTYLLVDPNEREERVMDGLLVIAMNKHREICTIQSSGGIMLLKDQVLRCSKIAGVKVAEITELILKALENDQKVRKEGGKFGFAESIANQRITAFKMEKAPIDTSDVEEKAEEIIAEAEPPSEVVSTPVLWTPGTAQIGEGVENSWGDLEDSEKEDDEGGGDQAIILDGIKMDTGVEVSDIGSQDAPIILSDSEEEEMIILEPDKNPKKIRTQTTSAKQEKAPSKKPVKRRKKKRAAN
UniProt O43414: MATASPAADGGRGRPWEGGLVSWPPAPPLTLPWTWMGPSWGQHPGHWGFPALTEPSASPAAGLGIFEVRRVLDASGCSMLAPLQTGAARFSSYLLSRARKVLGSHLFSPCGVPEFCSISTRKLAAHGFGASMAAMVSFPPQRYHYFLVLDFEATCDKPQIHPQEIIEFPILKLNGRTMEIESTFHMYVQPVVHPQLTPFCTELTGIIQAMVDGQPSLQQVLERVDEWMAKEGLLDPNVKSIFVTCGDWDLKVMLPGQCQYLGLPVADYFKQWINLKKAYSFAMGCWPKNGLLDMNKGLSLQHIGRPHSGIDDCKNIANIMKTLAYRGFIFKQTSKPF
UniProt Q96TA1: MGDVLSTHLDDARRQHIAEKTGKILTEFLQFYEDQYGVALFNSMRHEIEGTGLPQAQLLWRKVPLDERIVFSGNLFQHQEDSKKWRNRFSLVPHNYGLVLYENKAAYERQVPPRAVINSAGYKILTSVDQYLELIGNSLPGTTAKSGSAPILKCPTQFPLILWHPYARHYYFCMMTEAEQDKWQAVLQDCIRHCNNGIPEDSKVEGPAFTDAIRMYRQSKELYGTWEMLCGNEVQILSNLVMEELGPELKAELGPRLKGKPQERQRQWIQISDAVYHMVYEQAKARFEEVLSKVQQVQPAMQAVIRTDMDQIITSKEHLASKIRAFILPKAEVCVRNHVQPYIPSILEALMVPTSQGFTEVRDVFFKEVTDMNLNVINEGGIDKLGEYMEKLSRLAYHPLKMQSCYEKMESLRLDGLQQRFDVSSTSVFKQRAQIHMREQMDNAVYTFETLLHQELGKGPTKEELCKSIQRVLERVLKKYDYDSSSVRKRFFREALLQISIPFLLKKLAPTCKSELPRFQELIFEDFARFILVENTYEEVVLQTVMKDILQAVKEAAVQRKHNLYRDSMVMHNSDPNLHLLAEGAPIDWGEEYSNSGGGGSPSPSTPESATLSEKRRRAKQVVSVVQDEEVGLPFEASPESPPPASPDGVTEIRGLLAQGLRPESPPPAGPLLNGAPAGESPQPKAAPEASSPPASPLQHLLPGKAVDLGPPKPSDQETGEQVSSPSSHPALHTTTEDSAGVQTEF
UniProt Q9NRY5: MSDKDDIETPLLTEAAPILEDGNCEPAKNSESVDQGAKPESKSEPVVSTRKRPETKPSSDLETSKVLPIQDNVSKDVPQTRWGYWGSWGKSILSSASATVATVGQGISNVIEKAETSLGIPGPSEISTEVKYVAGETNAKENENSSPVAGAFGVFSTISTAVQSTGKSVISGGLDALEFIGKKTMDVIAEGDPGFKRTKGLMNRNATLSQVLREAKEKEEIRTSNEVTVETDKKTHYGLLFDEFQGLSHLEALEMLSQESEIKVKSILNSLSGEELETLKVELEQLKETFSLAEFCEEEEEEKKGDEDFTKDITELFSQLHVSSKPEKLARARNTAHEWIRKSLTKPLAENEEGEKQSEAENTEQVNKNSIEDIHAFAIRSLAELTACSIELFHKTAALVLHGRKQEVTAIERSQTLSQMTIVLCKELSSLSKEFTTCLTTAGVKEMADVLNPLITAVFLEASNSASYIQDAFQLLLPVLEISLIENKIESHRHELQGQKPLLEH
UniProt Q96DZ1: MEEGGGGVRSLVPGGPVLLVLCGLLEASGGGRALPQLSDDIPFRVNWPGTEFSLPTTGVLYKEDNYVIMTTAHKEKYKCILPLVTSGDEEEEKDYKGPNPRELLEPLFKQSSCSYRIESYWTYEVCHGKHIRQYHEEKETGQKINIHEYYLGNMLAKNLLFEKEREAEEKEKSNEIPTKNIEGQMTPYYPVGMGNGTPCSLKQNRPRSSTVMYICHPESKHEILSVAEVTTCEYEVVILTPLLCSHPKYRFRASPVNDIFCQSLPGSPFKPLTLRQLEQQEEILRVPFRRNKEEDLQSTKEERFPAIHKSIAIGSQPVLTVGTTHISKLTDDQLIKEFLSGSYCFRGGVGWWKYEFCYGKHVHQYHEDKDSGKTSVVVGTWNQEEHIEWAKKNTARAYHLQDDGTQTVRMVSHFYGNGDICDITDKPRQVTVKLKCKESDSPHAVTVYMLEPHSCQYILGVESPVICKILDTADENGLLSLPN
UniProt Q13868, whole entry, looked up: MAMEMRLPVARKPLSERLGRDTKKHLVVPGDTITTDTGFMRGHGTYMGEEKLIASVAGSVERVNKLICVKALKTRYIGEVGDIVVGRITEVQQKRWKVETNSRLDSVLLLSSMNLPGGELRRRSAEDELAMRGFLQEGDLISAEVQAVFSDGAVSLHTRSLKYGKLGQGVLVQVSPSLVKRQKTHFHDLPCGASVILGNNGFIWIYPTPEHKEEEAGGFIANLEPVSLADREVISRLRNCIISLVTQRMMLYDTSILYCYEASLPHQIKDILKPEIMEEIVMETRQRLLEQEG
UniProt O95571: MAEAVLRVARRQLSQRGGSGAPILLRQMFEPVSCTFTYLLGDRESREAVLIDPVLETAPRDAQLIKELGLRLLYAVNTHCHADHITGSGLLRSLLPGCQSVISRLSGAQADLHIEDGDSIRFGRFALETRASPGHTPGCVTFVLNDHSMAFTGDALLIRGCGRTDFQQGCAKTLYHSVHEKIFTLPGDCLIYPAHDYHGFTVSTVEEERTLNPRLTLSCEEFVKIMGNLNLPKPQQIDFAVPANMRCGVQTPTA
UniProt O00471: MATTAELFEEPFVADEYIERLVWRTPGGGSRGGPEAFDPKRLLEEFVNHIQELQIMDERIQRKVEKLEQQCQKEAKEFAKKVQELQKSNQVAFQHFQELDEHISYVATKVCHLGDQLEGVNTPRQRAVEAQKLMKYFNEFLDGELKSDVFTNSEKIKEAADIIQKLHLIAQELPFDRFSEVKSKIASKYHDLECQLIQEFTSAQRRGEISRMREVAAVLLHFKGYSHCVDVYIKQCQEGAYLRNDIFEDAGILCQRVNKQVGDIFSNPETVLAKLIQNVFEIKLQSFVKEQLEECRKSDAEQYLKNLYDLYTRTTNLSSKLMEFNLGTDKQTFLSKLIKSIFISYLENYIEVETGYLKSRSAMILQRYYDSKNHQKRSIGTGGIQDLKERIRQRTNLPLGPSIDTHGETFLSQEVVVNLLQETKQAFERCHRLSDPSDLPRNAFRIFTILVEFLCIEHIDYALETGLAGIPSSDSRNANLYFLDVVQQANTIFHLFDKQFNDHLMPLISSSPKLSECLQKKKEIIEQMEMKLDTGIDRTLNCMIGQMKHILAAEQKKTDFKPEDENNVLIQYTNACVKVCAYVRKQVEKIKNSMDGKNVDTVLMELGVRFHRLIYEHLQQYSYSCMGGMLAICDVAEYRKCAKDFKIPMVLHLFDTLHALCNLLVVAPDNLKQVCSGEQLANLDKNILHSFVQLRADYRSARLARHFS

The other results are listed elsewhere or left out.
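Also: competitive profiling in live THP-1 cells: cysteine peptides tagged with an iodoacetamide desthiobiotin (IA-DTB) probe, intensity after compound treatment relative to DMSO-treated cells.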

As to “EXOSC10_Q01780_288_PQPQLYRPIEETPCHFISSLDELVELNEK (UniProt Q01780)”, the “probe-labelled cysteine peptide fold change” value by setting is: (10 µM) 0.177; (50 µM) 0.318.

Turning to “FAAP100_Q0VG06_309+311_TEPQAAEAAENFLPDEDVHCDCLVAFGHHGR (UniProt Q0VG06)”, the “probe-labelled cysteine peptide fold change” value is -0.158 (10 µM) and -0.399 (50 µM).

With “EXOC2_Q96KP1_586_CVMATLQHTAEEIKR (UniProt Q96KP1)”, the “probe-labelled cysteine peptide fold change” value (10 µM) came out at 0.236 and the “probe-labelled cysteine peptide fold change” value (50 µM) amounted to 0.137.

For “FAM120B_Q96EK7_416_QEVPMCTGPEAR (UniProt Q96EK7)”, the “probe-labelled cysteine peptide fold change” value is, setting by setting: (10 µM) -0.508; (50 µM) -0.442.

Take “ERCC6L_Q2NKX8_1222_IQEALNCLVK (UniProt Q2NKX8)”: the “probe-labelled cysteine peptide fold change” value reads like this: (10 µM) 0.134; (50 µM) -0.0872.

For the target “EXOSC9_Q06265_46_ISFGTDYGCCIVELGK (UniProt Q06265)”, the “probe-labelled cysteine peptide fold change” value is 0.118 (10 µM) and -0.0998 (50 µM).

Regarding “ERI3_O43414_258_VMLPGQCQYLGLPVADYFK (UniProt O43414)”, the “probe-labelled cysteine peptide fold change” value is -0.0545 (10 µM) and 0.225 (50 µM).

Regarding “FAM129B_Q96TA1_194_HCNNGIPEDSK (UniProt Q96TA1)”, the “probe-labelled cysteine peptide fold change” value was -0.0068 (10 µM) and 0.21 (50 µM).

Take “FAM114A2_Q9NRY5_425_SQTLSQMTIVLCK (UniProt Q9NRY5)”: the “probe-labelled cysteine peptide fold change” value stood at 0.0706 (10 µM) and 0.151 (50 µM).

For the target “ERLEC1_Q96DZ1_113_QSSCSYR (UniProt Q96DZ1)”, the “probe-labelled cysteine peptide fold change” value is -0.0664 (10 µM) and 0.18 (50 µM).

In the case of “ERLEC1_Q96DZ1_126_IESYWTYEVCHGK (UniProt Q96DZ1)”, the “probe-labelled cysteine peptide fold change” value (10 µM) is 0.192 and the “probe-labelled cysteine peptide fold change” value (50 µM) was determined as 0.0829.

Take “EXOSC2_Q13868_259_MMLYDTSILYCYEASLPHQIK (UniProt Q13868)”: the “probe-labelled cysteine peptide fold change” value (10 µM) came out at 0.341 and the “probe-labelled cysteine peptide fold change” value (50 µM) is 0.254.

In the case of “ERO1B_Q86YB8_130_ELEDCEQANK (UniProt Q86YB8)”, the “probe-labelled cysteine peptide fold change” value is -0.316 (10 µM) and -0.0572 (50 µM).

With “ETHE1_O95571_34_QMFEPVSCTFTYLLGDRESR (UniProt O95571)”, the “probe-labelled cysteine peptide fold change” value (10 µM) was -0.207 and the “probe-labelled cysteine peptide fold change” value (50 µM) is -0.453.

“EXOC5_O00471_194_YHDLECQLIQEFTSAQR (UniProt O00471)”: the “probe-labelled cysteine peptide fold change” value runs as follows: (10 µM) -0.00845; (50 µM) -0.0241.

With “EXOSC10_Q01780_327_SFLGLTCLMQISTR (UniProt Q01780)”, the “probe-labelled cysteine peptide fold change” value reads like this: (10 µM) 0.419; (50 µM) 0.333.

For the target “EXOSC9_Q06265_158_VDLHLLNHDGNIIDAASIAAIVALCHFR (UniProt Q06265)”, the “probe-labelled cysteine peptide fold change” value (10 µM) worked out at 0.286 and the “probe-labelled cysteine peptide fold change” value (50 µM) came to 0.191.

“FAM111B_Q6SJ93_183_QCENPNMECILFHVVAIGR (UniProt Q6SJ93)”: the “probe-labelled cysteine peptide fold change” value was -0.0108 (10 µM) and 0.113 (50 µM).

Turning to “FAM120B_Q96EK7_499_QEIMCTGHESK (UniProt Q96EK7)”, the “probe-labelled cysteine peptide fold change” value (10 µM) is -0.283 and the “probe-labelled cysteine peptide fold change” value (50 µM) is -0.296.

On to “F2_P00734_594_WYQMGIVSWGEGCDR (UniProt P00734)”, for which the “probe-labelled cysteine peptide fold change” value was -0.204 (10 µM) and -0.471 (50 µM).

“ERP44_Q9BS26_189_VANILHDDCAFLSAFGDVSKPER (UniProt Q9BS26)”: the “probe-labelled cysteine peptide fold change” value (10 µM) is -0.0221 and the “probe-labelled cysteine peptide fold change” value (50 µM) was 0.278.

The values above are taken from the supplement of paper PMC12067093, “Discovery and optimisation of a covalent ligand for TRIM25 and its application to targeted protein ubiquitination” (Chemical Science, 2025).
